In patent publication US20200086049A1, “Kit For Treating or Relieving Pain at Incision Site Following Surgical Procedure” (GENEWEL CO., LTD., priority 2017, published 2020):
Some of these results come from one statement about several compounds together.

Experiment: slow-release test for the drug of the drug-containing mixture solution
Assay type: physicochemical
Settings: volume ratio 2:1, FIGS. 9 and 10
[1] = 0.75 wt % aqueous drug solution mixed with crosslinked alginate, 30 wt % poloxamer-containing DDK gel
[2] = 0.75 wt % aqueous drug solution mixed with non-crosslinked 30 wt % poloxamer solution

| drug released slowly (time) [1] | drug released slowly (time) [2] | Structure (SMILES) |
| --- | --- | --- |
| up to 3 days | up to 3 days | CCCCN1CCCCC1C(=O)Nc1c(C)cccc1C (stereo not shown) [bupivacaine] |
| up to 3 days | up to 3 days | CCCN1CCCC[C@H]1C(=O)Nc1c(C)cccc1C [ropivacaine] |
